Measurements reported in PubChem BioAssay AID493246 (Drosophila RNAi Screening Center, 2011).
Assay: 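Genes fly cells need to grow and stay alive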 (primary screen). System: Drosophila Kc and S2R+ cells. Reagent: long dsRNA against Drosophila genes. Measured: 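Cell number per well after knock-down, printed as raw plate values; calls were based on per-plate z-scores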. Scale: Kc cell number and S2R+ cell number: higher = more cells remaining. Rule for the call: 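Active when the per-plate z-score of cell number is 3 or more in the direction of fewer cells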.
In all, the deposit lists about 21,000 reagents; below is an unselected part of those with a known target gene and a result. In the full data, 429 (2%) got an active call. 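Values are raw and not normalised between plates; calls rest on per-plate z-scores that were not deposited.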 Unmarked entries are inactive. Reagents against one gene are numbered here. No sequences are given here. Not stated in the record: the amount of reagent, the time to read-out.

The first 2 records, ahead of the listing:
gene | reagent no. | Kc cell number, rep 1 | Kc cell number, rep 2 | S2R+ cell number, rep 1 | S2R+ cell number, rep 2
Hcf | 1 | 4.97e5 | – | 7.62e5 | –
CG4465 | 1 | 1.19e6 | 1.15e6 | 1.12e6 | 1.21e6

Results, from the start:
gene | reagent no. | Kc cell number, rep 1 | Kc cell number, rep 2 | S2R+ cell number, rep 1 | S2R+ cell number, rep 2
Hcf | 1 | 4.97e5 | – | 7.62e5 | –
CG4465 | 1 | 1.19e6 | 1.15e6 | 1.12e6 | 1.21e6
CG5004 | 1 | 1.56e6 | 1.62e6 | 1.09e6 | 1.30e6
CG5004 | 2 | 1.75e6 | 1.78e6 | 1.18e6 | 1.37e6
CG5004 | 3 | 1.20e6 (active) | 1.16e6 | 6.73e5 | 7.93e5
CecC | 1 | 1.58e6 | 1.62e6 | 1.03e6 | 1.15e6
CG4582 | 1 | 1.58e6 | 1.50e6 | 9.87e5 | 1.10e6
Stip1 | 1 | 1.37e6 | 1.35e6 | 6.75e5 | 6.76e5
obst-B | 1 | 1.34e6 | 1.38e6 | 1.28e6 | 1.30e6
Pde9 | 1 | 1.71e6 | 1.53e6 | 1.05e6 | 1.10e6
Pde9 | 2 | 1.54e6 | 1.63e6 | 1.04e6 | 1.17e6
Pde9 | 3 | 1.62e6 | 1.67e6 | 1.04e6 | 1.14e6
Pde9 | 4 | 1.81e6 | 1.72e6 | 1.11e6 | 1.16e6
CG9503 | 1 | 1.68e6 | 1.71e6 | 1.17e6 | 1.27e6
Rsbp15 | 1 | 1.77e6 | 1.77e6 | 1.38e6 | 1.50e6
CG17896 | 1 | 5.59e5 | – | 9.13e5 | –
hh | 1 | 1.74e6 | 1.73e6 | 1.00e6 | 1.14e6
CG14262 | 1 | 1.50e6 | 1.56e6 | 1.06e6 | 1.18e6
CG9400 | 1 | 5.38e5 | – | 8.47e5 | –
CG32301 | 1 | 1.47e6 | 1.35e6 | 9.83e5 | 1.19e6
7B2 | 1 | 1.47e6 | 1.60e6 | 1.33e6 | 1.42e6
CG8160 | 1 | 1.28e6 | 1.37e6 | 1.11e6 | 1.21e6
CG10265 | 1 | 1.35e6 | 1.43e6 | 9.94e5 | 1.08e6
CG12540 | 1 | 1.53e6 | 1.56e6 | 1.14e6 | 1.21e6
EbpII | 1 | 1.43e6 | 1.50e6 | 1.12e6 | 1.17e6
pkm | 1 | 5.68e5 | – | 7.73e5 | –
spg | 1 | 1.54e6 | 1.58e6 | 1.03e6 | 1.16e6
spg | 2 | 1.59e6 | 1.60e6 | 1.07e6 | 1.18e6
Nuak | 1 | 1.68e6 | 1.74e6 | 1.36e6 | 1.48e6
Nuak | 2 | 1.61e6 | 1.63e6 | 1.33e6 | 1.39e6
Nuak | 3 | 1.57e6 | 1.69e6 | 1.43e6 | 1.55e6
CG3492 | 1 | 1.40e6 | 1.46e6 | 1.15e6 | 1.24e6
hoe1 | 1 | 1.24e6 | 1.42e6 | 4.71e5 | 6.08e5
hoe1 | 2 | 1.55e6 | 1.45e6 | 1.18e6 | 1.33e6
hoe1 | 3 | 1.47e6 | 1.39e6 | 1.10e6 | 1.22e6
GstE4 | 1 | 1.54e6 | 1.59e6 | 1.08e6 | 1.29e6
CG42673 | 1 | 1.47e6 | 1.66e6 | 1.17e6 | 1.36e6
CG42673 | 2 | 9.62e5 (active) | 7.06e5 | 6.37e5 | 7.21e5
CG42673 | 3 | 1.56e6 | 1.46e6 | 1.37e6 | 1.49e6
CG42673 | 4 | 1.55e6 | 1.62e6 | 1.38e6 | 1.53e6
CG42673 | 5 | 1.37e6 | 1.85e6 | 1.28e6 | 1.32e6
CG42673 | 6 | 1.34e6 | 1.43e6 | 1.21e6 | 1.31e6
